No constants are given. Whether binding was seen depends on the method and setting. In cells and extracts the contact can be indirect. Some entries that bind do so weakly or less than the wild type. Sequences can lack the tags named with a protein.

For test [1], the target named is T1, sGC α2(1-713) with C-terminal HA or FLAG tag (human) (UniProt P33402).
T1 sequence: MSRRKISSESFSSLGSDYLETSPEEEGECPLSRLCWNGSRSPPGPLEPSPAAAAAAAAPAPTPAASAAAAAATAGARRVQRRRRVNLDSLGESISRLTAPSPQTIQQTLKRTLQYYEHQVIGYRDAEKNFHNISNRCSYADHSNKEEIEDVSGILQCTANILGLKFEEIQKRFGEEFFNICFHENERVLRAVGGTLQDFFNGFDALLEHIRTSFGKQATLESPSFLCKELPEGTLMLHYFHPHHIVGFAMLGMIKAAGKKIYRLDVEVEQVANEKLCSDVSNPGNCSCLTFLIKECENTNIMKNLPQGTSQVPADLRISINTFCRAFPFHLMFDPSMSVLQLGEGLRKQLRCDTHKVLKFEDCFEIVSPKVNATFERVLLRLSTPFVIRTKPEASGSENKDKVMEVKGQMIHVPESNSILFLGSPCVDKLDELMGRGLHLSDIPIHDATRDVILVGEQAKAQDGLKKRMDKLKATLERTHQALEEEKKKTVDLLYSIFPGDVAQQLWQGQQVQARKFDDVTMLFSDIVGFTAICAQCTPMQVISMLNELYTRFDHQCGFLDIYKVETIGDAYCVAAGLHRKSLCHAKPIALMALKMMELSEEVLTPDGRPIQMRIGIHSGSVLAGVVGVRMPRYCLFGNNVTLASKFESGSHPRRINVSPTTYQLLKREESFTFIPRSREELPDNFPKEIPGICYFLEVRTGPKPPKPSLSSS
As to the kind of experiment: co-IP; SH-SY5Y cells transiently co-transfected with three HA-/FLAG-tagged constructs at a time (eight combinations); HA-tagged construct precipitated with anti-HA antibody and Protein A/G Plus Agarose (Pierce Classic IP Kit), overnight at 4 °C; co-precipitated FLAG-tagged constructs detected by anti-FLAG immunoblot.

The target of test [2] is sGC α1(1-690) with C-terminal HA or FLAG tag (human) (UniProt Q02108). The description is as above.

B1: sGC α2(1-713) with C-terminal HA or FLAG tag (protein, UniProt P33402-1 1-713)
chain: MSRRKISSESFSSLGSDYLETSPEEEGECPLSRLCWNGSRSPPGPLEPSPAAAAAAAAPAPTPAASAAAAAATAGARRVQRRRRVNLDSLGESISRLTAPSPQTIQQTLKRTLQYYEHQVIGYRDAEKNFHNISNRCSYADHSNKEEIEDVSGILQCTANILGLKFEEIQKRFGEEFFNICFHENERVLRAVGGTLQDFFNGFDALLEHIRTSFGKQATLESPSFLCKELPEGTLMLHYFHPHHIVGFAMLGMIKAAGKKIYRLDVEVEQVANEKLCSDVSNPGNCSCLTFLIKECENTNIMKNLPQGTSQVPADLRISINTFCRAFPFHLMFDPSMSVLQLGEGLRKQLRCDTHKVLKFEDCFEIVSPKVNATFERVLLRLSTPFVIRTKPEASGSENKDKVMEVKGQMIHVPESNSILFLGSPCVDKLDELMGRGLHLSDIPIHDATRDVILVGEQAKAQDGLKKRMDKLKATLERTHQALEEEKKKTVDLLYSIFPGDVAQQLWQGQQVQARKFDDVTMLFSDIVGFTAICAQCTPMQVISMLNELYTRFDHQCGFLDIYKVETIGDAYCVAAGLHRKSLCHAKPIALMALKMMELSEEVLTPDGRPIQMRIGIHSGSVLAGVVGVRMPRYCLFGNNVTLASKFESGSHPRRINVSPTTYQLLKREESFTFIPRSREELPDNFPKEIPGICYFLEVRTGPKPPKPSLSSS
Consider B1, for which the binding result in test [1] was “binds”.

B2: sGC β1(1-619) with C-terminal HA or FLAG tag (protein, UniProt Q02153 1-619)
chain: MYGFVNHALELLVIRNYGPEVWEDIKKEAQLDEEGQFLVRIIYDDSKTYDLVAAASKVLNLNAGEILQMFGKMFFVFCQESGYDTILRVLGSNVREFLQNLDALHDHLATIYPGMRAPSFRCTDAEKGKGLILHYYSEREGLQDIVIGIIKTVAQQIHGTEIDMKVIQQRNEECDHTQFLIEEKESKEEDFYEDLDRFEENGTQESRISPYTFCKAFPFHIIFDRDLVVTQCGNAIYRVLPQLQPGNCSLLSVFSLVRPHIDISFHGILSHINTVFVLRSKEGLLDVEKLECEDELTGTEISCLRLKGQMIYLPEADSILFLCSPSVMNLDDLTRRGLYLSDIPLHDATRDLVLLGEQFREEYKLTQELEILTDRLQLTLRALEDEKKKTDTLLYSVLPPSVANELRHKRPVPAKRYDNVTILFSGIVGFNAFCSKHASGEGAMKIVNLLNDLYTRFDTLTDSRKNPFVYKVETVGDKYMTVSGLPEPCIHHARSICHLALDMMEIAGQVQVDGESVQITIGIHTGEVVTGVIGQRMPRYCLFGNTVNLTSRTETTGEKGKINVSEYTYRCLMSPENSDPQFHLEHRGPVSMKGKKEPMQVWFLSRKNTGTEETKQDDD
In the case of B2, the binding result in test [1] is recorded as “binds”.

B3: sGC β1(1-619) H105G with C-terminal FLAG tag (protein, UniProt Q02153 1-619)
chain: MYGFVNHALELLVIRNYGPEVWEDIKKEAQLDEEGQFLVRIIYDDSKTYDLVAAASKVLNLNAGEILQMFGKMFFVFCQESGYDTILRVLGSNVREFLQNLDALGDHLATIYPGMRAPSFRCTDAEKGKGLILHYYSEREGLQDIVIGIIKTVAQQIHGTEIDMKVIQQRNEECDHTQFLIEEKESKEEDFYEDLDRFEENGTQESRISPYTFCKAFPFHIIFDRDLVVTQCGNAIYRVLPQLQPGNCSLLSVFSLVRPHIDISFHGILSHINTVFVLRSKEGLLDVEKLECEDELTGTEISCLRLKGQMIYLPEADSILFLCSPSVMNLDDLTRRGLYLSDIPLHDATRDLVLLGEQFREEYKLTQELEILTDRLQLTLRALEDEKKKTDTLLYSVLPPSVANELRHKRPVPAKRYDNVTILFSGIVGFNAFCSKHASGEGAMKIVNLLNDLYTRFDTLTDSRKNPFVYKVETVGDKYMTVSGLPEPCIHHARSICHLALDMMEIAGQVQVDGESVQITIGIHTGEVVTGVIGQRMPRYCLFGNTVNLTSRTETTGEKGKINVSEYTYRCLMSPENSDPQFHLEHRGPVSMKGKKEPMQVWFLSRKNTGTEETKQDDD
In the case of B3, the binding result in test [1] was “binds”.

B4: sGC α1(1-690) with C-terminal HA or FLAG tag (protein, UniProt Q02108 1-690)
chain: MFCTKLKDLKITGECPFSLLAPGQVPNESSEEAAGSSESCKATVPICQDIPEKNIQESLPQRKTSRSRVYLHTLAESICKLIFPEFERLNVALQRTLAKHKIKESRKSLEREDFEKTIAEQAVAAGVPVEVIKESLGEEVFKICYEEDENILGVVGGTLKDFLNSFSTLLKQSSHCQEAGKRGRLEDASILCLDKEDDFLHVYYFFPKRTTSLILPGIIKAAAHVLYETEVEVSLMPPCFHNDCSEFVNQPYLLYSVHMKSTKPSLSPSKPQSSLVIPTSLFCKTFPFHFMFDKDMTILQFGNGIRRLMNRRDFQGKPNFEEYFEILTPKINQTFSGIMTMLNMQFVVRVRRWDNSVKKSSRVMDLKGQMIYIVESSAILFLGSPCVDRLEDFTGRGLYLSDIPIHNALRDVVLIGEQARAQDGLKKRLGKLKATLEQAHQALEEEKKKTVDLLCSIFPCEVAQQLWQGQVVQAKKFSNVTMLFSDIVGFTAICSQCSPLQVITMLNALYTRFDQQCGELDVYKVETIGDAYCVAGGLHKESDTHAVQIALMALKMMELSDEVMSPHGEPIKMRIGLHSGSVFAGVVGVKMPRYCLFGNNVTLANKFESCSVPRKINVSPTTYRLLKDCPGFVFTPRSREELPPNFPSEIPGICHFLDAYQQGTNSKPCFQKKDVEDGNANFLGKASGID
For the molecule B4, in test [2], the binding entry was “binds”.
